This note sets out measurements from PMC8553144.

No constants are given. Whether binding was seen depends on the method and setting.

Experiment [1] addresses G5-HP60 (A. thaliana) (UniProt O65570). Kind of experiment: AUC; sedimentation velocity, 42,000 rpm, absorbance at 280 nm, 20°C, 20 mM PIPES, 50 mM NaCl pH 6.8; SEDFIT; both purified.
Experiment [2] has the same target. Kind of experiment: AUC; sedimentation equilibrium, 28,000, 36,000 and 42,000 rpm, absorbance at 284 nm, 20°C, 20 mM PIPES, 50 mM NaCl pH 6.8; Heteroanalysis, non-ideal model with the molecular weight fixed to the monomer; both purified.

B1: G5-HP60 (domain or fragment, UniProt O65570 915-974)
chain: GGGGGHPYDRLKTTSTDPVSDIDVTRREAYLSSEEFKEKFGMTKEAFYKLPKWKQNKFKMAVQLF
As for B1, the binding entry in experiment [1] and in experiment [2] was “no binding” throughout.
